Measured data: PubChem BioAssay AID1259425 (University of Nebraska Medical Center, 2018)
Screen: 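Compare each knockdown with KSR1 silencing using changes in marker transcripts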 (primary screen). Cell system: HCT116 human colon cancer cells. Reagents: siRNA pool against human genes, 50 nM siRNA. Measurement: 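After 50 nM siRNA pool, branched-DNA assay measures six marker transcripts per well, minus blank, normalised to the geometric mean of two housekeeping transcripts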. Scale: BNIP3L mRNA: higher = more BNIP3L transcript after knockdown.
This is an unselected part of about 14,000 reagents. Not all columns of the deposit are shown. The record does not give: the time to read-out.

After knock-down of NMNAT1 the results were BNIP3L mRNA, set 1 = 0.13. With knock-down of P2RY10, the record shows BNIP3L mRNA, set 1 = 0.246. After knock-down of TSC22D1, the record shows BNIP3L mRNA, set 1 = 0.127. Against LMO3 the deposit lists BNIP3L mRNA, set 1 = 0.163. After knock-down of MRPL57 the results were BNIP3L mRNA, set 1 = 0.0835. RWDD3 gave BNIP3L mRNA, set 1 = 0.0795.

Silencing of BCL9 came out at: BNIP3L mRNA, set 1 = 0.133. Knock-down of ELOVL1 came out at: BNIP3L mRNA, set 1 = 0.103. Knock-down of NPIPA1 came out at: BNIP3L mRNA, set 1 = 0.115. Against ATXN7 the deposit lists BNIP3L mRNA, set 1 = 0.0681. Against NNMT the deposit lists BNIP3L mRNA, set 1 = 0.144. With knock-down of KIF15, the screen gave BNIP3L mRNA, set 1 = 0.0712.

With knock-down of SLC24A3, the screen gave BNIP3L mRNA, set 1 = 0.165. Silencing of HMOX1 resulted in: BNIP3L mRNA, set 1 = 0.0885. ZNF695 showed BNIP3L mRNA, set 1 = 0.0756. After knock-down of PODNL1, the record shows BNIP3L mRNA, set 1 = 0.131. Silencing of IFRD2 resulted in: BNIP3L mRNA, set 1 = 0.0916. Depletion of SCD gave: BNIP3L mRNA, set 1 = 0.0857.

SLC12A1 showed BNIP3L mRNA, set 1 = 0.136. With knock-down of TMA7, the record shows BNIP3L mRNA, set 1 = 0.195. ISCU showed BNIP3L mRNA, set 1 = 0.167. For CNOT12 the deposit lists BNIP3L mRNA, set 1 = 0.176. After knock-down of CLCA4 the results were BNIP3L mRNA, set 1 = 0.127. Depletion of GNAI1 came out at: BNIP3L mRNA, set 1 = 0.107.

Against CDYL, the entry reads BNIP3L mRNA, set 1 = 0.0935. ZNF587 showed BNIP3L mRNA, set 1 = 0.0734. Knock-down of SARM1 resulted in: BNIP3L mRNA, set 1 = 0.172. With knock-down of DST, the screen gave BNIP3L mRNA, set 1 = 0.0563.
